# Experimental data reported in ChEMBL document CHEMBL4513141, “CO-ADD screening of NIH (USA) - Clinical Collection” (2021).
# Some of the results follow. Results with a measured potency or affinity are listed apart.
# Test system: Pseudomonas aeruginosa
# Details: Concentration 20 uM; ASSAY_TEST Inhibition of Bacterial Growth; detection method Absorption (OD600); MEDIA CAMHB; plate type 384well; NBS; CORNING #3640; time 18 hr
row,Structure (SMILES),Inhibition [%]
1,Nc1nc2ccc(Cl)cc2c2nc(-c3ccco3)nn12 [CGS-15943],16.02
2,c1cncc([C@@H]2CCCN2)c1 [NORNICOTINE],11.27
3,CS(=O)(=O)Nc1ccc(Cc2noc(-c3ccc4[nH]cc(CCN)c4c3)n2)cc1.O.O,20.72
4,NCCc1ccccn1,14.43
5,CC[C@@H]1/C=C/C=C/C[C@H](C)[C@@H](O)[C@](C)(O)C(=O)[C@H](C)[C@@H](O)[C@H](C)C(=O)[C@H](C)[C@@H](O)[C@H](C)/C=C/C(=O)O[C@H]2[C@@H](C)[C@@H](CC1)O[C@@]1(CC[C@@H](C)[C@@H](C[C@H](C)O)O1)[C@@H]2C,15.85
6,COC(=O)N1CCN(C(=O)Cc2ccc(Cl)c(Cl)c2)C(CN2CCCC2)C1.O=C(O)/C=C/C(=O)O (stereo not given),8.98
7,C=C(C)CN1CC[C@]23c4c5ccc(O)c4O[C@H]2c2[nH]c4ccccc4c2C[C@@]3(O)C1C5.Cl.O,7.22
8,Nc1nc(F)nc2c1ncn2[C@@H]1O[C@H](CO)[C@@H](O)[C@@H]1O [FLUDARABINE],3.29
9,COc1ccc2[nH]cc(C3=CCNCC3)c2c1.COc1ccc2[nH]cc(C3=CCNCC3)c2c1.O=C(O)CCC(=O)O,15
10,CC1CCC[C@H](O)CCCCCc2cc(O)cc(O)c2C(=O)O1 (stereo not given in full),15.14
11,CNC1=Nc2ccc(Cl)cc2C(c2ccccc2)=[N+]([O-])C1 [CHLORDIAZEPOXIDE],14.44
12,COC(=O)C1=C(C)NC(C)=C(C(=O)OC)C1c1ccccc1[N+](=O)[O-] [NIFEDIPINE],24.23
13,CCN(C(C)=O)c1cccc(-c2ccnc3c(C#N)cnn23)c1 [ZALEPLON],10.08
14,O=C(O[C@@H]1Cc2c(O)cc(O)cc2O[C@@H]1c1cc(O)c(O)c(O)c1)c1cc(O)c(O)c(O)c1 [EPIGALOCATECHIN GALLATE],27.87
15,C=C1C[C@@H]2[C@H](CC[C@]3(C)C(=O)CC[C@@H]23)[C@@]2(C)C=CC(=O)C=C12 [EXEMESTANE],41.21
16,CN1[C@@H]2CC[C@H]1CC(OC(=O)C(CO)c1ccccc1)C2 (stereo not given in full),4.94
17,C[N+]1(C)CCN(c2ccccc2)CC1.[I-] [DIMETHYLPHENYLPIPERAZINIUM IODIDE],13.74
18,CN(C)CCC=C1c2ccccc2CCc2ccccc21.Cl [AMITRIPTYLINE HYDROCHLORIDE],10.05
19,C[N+]1(C)CCCC(OC(=O)C(O)(c2ccccc2)c2ccccc2)C1.[Br-] (stereo not given) [MEPENZOLATE BROMIDE],14.59
20,Cl.NCC(O)c1ccc(O)c(O)c1 (stereo not given),7.4
21,COc1cc(CNC(=O)CCCC/C=C\C(C)C)ccc1O [ZUCAPSAICIN],15.26
22,CN1C(=O)CN=C(c2ccccc2)c2cc([N+](=O)[O-])ccc21 [NIMETAZEPAM],16.21

# Copied from the list.
# In Inhibition [%], `C[N+]1(C)CCCC(OC(=O)C(O)(c2ccccc2)c2ccccc2)C1.[Br-]` (stereo not given) [MEPENZOLATE BROMIDE] is listed with 14.59
# In Inhibition [%], `COc1cc(CNC(=O)CCCC/C=C\C(C)C)ccc1O` [ZUCAPSAICIN] is listed with 15.26
# In Inhibition [%], `CCN(C(C)=O)c1cccc(-c2ccnc3c(C#N)cnn23)c1` [ZALEPLON] is listed with 10.08

# (next part)

row,Structure (SMILES),Inhibition [%]
1,CN(C)CCc1c[nH]c2ccc(C[C@H]3COC(=O)N3)cc12 [ZOLMITRIPTAN],4.59
2,Cn1c(=O)c2nc[nH]c2n(C)c1=O.O [THEOPHYLLINE],16.98
3,Cc1ncc2n1-c1ccc(Cl)cc1C(c1ccccc1F)=NC2.Cl [MIDAZOLAM HYDROCHLORIDE],11.86
4,NS(=O)(=O)c1cc(C2(O)NC(=O)c3ccccc32)ccc1Cl (stereo not given) [CHLORTHALIDONE],9.93
5,Cl.c1ccc2c(CC3=NCCN3)cccc2c1 [NAPHAZOLINE HYDROCHLORIDE],21.25
6,O=C1CN=C(c2ccccc2)c2cc([N+](=O)[O-])ccc2N1 [NITRAZEPAM],3.8
7,NC(=O)C[S+]([O-])C(c1ccccc1)c1ccccc1 (stereo not given) [MODAFINIL],8.07
8,C[C@]12CC[C@H]3[C@@H](CCC4=CC(=O)CC[C@@]43C)[C@@H]1CC[C@@H]2O [TESTOSTERONE],-7.2
9,CN/C(=N\CCSCc1nc[nH]c1C)NC#N [CIMETIDINE],12.46
10,CS(=O)(=O)O.O=C(O[C@@H]1C[C@@H]2C[C@H]3C[C@H](C1)N2CC3=O)c1c[nH]c2ccccc12,3.12
11,Br.CN1[C@@H]2CC(OC(=O)[C@H](CO)c3ccccc3)C[C@H]1[C@@H]1O[C@@H]12.O.O.O (stereo not given in full),20.16
12,CN1[C@@H](CC(=O)c2ccccc2)CCC[C@H]1C[C@H](O)c1ccccc1.Cl [LOBELINE HYDROCHLORIDE],18.5
13,Cl.O=C1CC2(CCCC2)CC(=O)N1CCCCN1CCN(c2ncccn2)CC1 [BUSPIRONE HYDROCHLORIDE],11.48
14,CC(C)(C)NCC(O)c1cc(O)cc(O)c1.O=S(=O)(O)O (stereo not given),12.22
15,CN(C)C(=O)C(CCN1CCC(O)(c2ccc(Cl)cc2)CC1)(c1ccccc1)c1ccccc1.Cl [LOPERAMIDE HYDROCHLORIDE],13.15
16,C[C@]12CC[C@H]3[C@@H](CCC4=CC(=O)CC[C@@H]43)[C@@H]1CC[C@@H]2O [NANDROLONE],5.8
17,CC(C)CC(N(C)C)C1(c2ccc(Cl)cc2)CCC1 (stereo not given) [SIBUTRAMINE],6.77
18,C#CCN(C)[C@H](C)Cc1ccccc1.Cl [SELEGILINE HYDROCHLORIDE],19.46
19,C[C@H](CCC(=O)O)[C@H]1CC[C@H]2[C@@H]3C(=O)C[C@@H]4CC(=O)CC[C@]4(C)[C@H]3CC(=O)[C@]12C [DEHYDROCHOLIC ACID],10.13
20,Cc1cc(NS(=O)(=O)c2ccc(N)cc2)no1 [SULFAMETHOXAZOLE],6.86
21,C[C@]12CC[C@H](O)CC1=CC[C@@H]1[C@@H]2CC[C@]2(C)C(=O)CC[C@@H]12 [PRASTERONE],11.37
22,CCOC(=O)c1ncn2c1CN(C)C(=O)c1cc(F)ccc1-2 [FLUMAZENIL],6.15

row,Structure (SMILES),Inhibition [%]
1,CC(=O)[C@H]1CC[C@H]2[C@@H]3CCC4=CC(=O)CC[C@]4(C)[C@H]3CC[C@]12C [PROGESTERONE],17.62
2,CN1[C@@H]2CC[C@H]1C[C@@H](OC(=O)c1c[nH]c3ccccc13)C2.Cl,23.54
3,CNC(=O)Oc1ccc2c(c1)[C@]1(C)CCN(C)C1N2C.CNC(=O)Oc1ccc2c(c1)[C@]1(C)CCN(C)C1N2C.O=S(=O)(O)O (stereo not given in full),12.54
4,Cl.N=C(N)NC(=O)c1nc(Cl)c(N)nc1N.O.O [AMILORIDE HYDROCHLORIDE],16.08
5,CC(=O)OC1C([N+]2(C)CCCCC2)C[C@H]2C3CC[C@H]4C[C@H](OC(C)=O)C([N+]5(C)CCCCC5)CC4(C)[C@H]3CCC12C.[Br-].[Br-] (stereo not given in full),18.65
6,COc1cc(N)c(Cl)cc1C(=O)NC1CN2CCC1CC2.Cl.O (stereo not given) [ZACOPRIDE HYDROCHLORIDE],11.2
7,CN(C)CCOc1ccc(/C(=C(/CCCl)c2ccccc2)c2ccccc2)cc1.O=C(O)CC(O)(CC(=O)O)C(=O)O [TOREMIFENE CITRATE],2.98
8,COc1cc([C@@H]2c3cc4c(cc3[C@H](O)[C@H]3COC(=O)[C@H]23)OCO4)cc(OC)c1OC [PODOFILOX],14.46
9,C[N+]1(CCC(C(N)=O)(c2ccccc2)c2ccccc2)CCCCC1.[Br-] [FENPIVERINIUM BROMIDE],25.98
10,COc1ccc2[nH]cc(CCN)c2c1 [5-METHOXYTRYPTAMINE],-13.25
11,Oc1ncnc2[nH]ncc12 [ALLOPURINOL],24.59
12,COc1ccc(CCN)cc1OC,4.73
13,CC[C@@H](C(N)=O)N1CCCC1=O,44.54
14,O=C(O)CCCc1ccc(N(CCCl)CCCl)cc1 [CHLORAMBUCIL],5.1
15,CC(C(=O)O)c1ccc(-c2ccccc2)c(F)c1 (stereo not given) [FLURBIPROFEN],44.27
16,Cl.O.Oc1ccc2c3c1O[C@H]1c4[nH]c5ccccc5c4C[C@@]4(O)C(C2)N(CC2CC2)CC[C@]314,12.62
17,CCOC(=O)C1=C(COCCN)NC(C)=C(C(=O)OC)C1c1ccccc1Cl (stereo not given) [AMLODIPINE],-7.64
18,Cl.O[C@@H]1CCCC[C@H]1N1CCC(c2ccccc2)CC1,10.24
19,Cl.Oc1ccc2c3c1OC1C(O)CC[C@@]4(O)[C@@H](C2)N(CC2CCC2)CC[C@]314 (stereo not given in full),17.84
20,Cl.Cl.OCCN1CCN(CCCN2c3ccccc3Sc3ccc(C(F)(F)F)cc32)CC1 [FLUPHENAZINE HYDROCHLORIDE],12.24
21,Cc1ccc(-c2nc3ccc(C)cn3c2CC(=O)N(C)C)cc1.Cc1ccc(-c2nc3ccc(C)cn3c2CC(=O)N(C)C)cc1.O=C(O)C(O)C(O)C(=O)O [ZOLPIDEM TARTRATE],0.42
